Chains of the proteins cited; added tags and fusions are not shown.
UniProt Q6P3S6: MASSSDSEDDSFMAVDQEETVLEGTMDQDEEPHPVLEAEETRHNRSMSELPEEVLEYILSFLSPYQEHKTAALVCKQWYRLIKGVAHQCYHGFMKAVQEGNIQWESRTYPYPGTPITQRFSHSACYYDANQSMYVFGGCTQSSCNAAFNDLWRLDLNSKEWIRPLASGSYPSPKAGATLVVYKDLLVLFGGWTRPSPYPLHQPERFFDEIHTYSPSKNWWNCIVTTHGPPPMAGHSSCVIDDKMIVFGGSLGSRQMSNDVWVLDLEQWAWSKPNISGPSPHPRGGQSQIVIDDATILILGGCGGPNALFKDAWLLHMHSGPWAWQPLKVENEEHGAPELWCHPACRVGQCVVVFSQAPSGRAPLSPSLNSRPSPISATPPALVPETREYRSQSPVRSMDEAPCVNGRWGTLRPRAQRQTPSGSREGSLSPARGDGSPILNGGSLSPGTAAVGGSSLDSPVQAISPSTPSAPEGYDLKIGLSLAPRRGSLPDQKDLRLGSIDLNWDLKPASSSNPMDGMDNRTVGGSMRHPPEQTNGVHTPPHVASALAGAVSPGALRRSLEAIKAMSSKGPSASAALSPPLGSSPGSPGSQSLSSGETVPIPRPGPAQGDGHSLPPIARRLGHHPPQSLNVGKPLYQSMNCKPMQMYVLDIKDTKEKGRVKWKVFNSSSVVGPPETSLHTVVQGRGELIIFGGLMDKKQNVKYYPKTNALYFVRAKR
UniProt Q5MIZ7: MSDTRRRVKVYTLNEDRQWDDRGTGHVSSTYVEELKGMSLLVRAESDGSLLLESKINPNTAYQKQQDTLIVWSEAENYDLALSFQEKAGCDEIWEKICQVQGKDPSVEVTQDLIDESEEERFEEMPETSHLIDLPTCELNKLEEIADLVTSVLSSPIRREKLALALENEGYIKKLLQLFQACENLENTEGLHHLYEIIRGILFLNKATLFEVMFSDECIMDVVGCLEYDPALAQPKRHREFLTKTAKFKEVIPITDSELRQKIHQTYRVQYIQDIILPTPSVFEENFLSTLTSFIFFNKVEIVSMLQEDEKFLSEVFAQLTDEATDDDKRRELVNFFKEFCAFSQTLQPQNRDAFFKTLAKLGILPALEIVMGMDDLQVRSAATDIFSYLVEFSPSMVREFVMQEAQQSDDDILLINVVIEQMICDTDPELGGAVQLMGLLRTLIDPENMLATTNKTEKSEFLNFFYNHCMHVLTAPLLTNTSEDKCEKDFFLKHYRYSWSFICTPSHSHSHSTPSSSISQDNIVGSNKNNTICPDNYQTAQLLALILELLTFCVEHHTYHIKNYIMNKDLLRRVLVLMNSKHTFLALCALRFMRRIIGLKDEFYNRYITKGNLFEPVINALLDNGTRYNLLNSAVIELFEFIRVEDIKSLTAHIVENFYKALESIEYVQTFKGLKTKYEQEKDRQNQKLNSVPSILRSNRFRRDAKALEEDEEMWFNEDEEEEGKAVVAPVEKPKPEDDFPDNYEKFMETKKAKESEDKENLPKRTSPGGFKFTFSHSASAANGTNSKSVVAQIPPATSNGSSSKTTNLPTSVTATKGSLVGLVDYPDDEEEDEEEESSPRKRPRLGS

In article doi:10.1101/2025.05.02.651838:

Legend:
[1] = molecular target: FBXO42 (bait of the IP-MS experiment) (UniProt Q6P3S6); experiment: affinity purification with mass spectrometry
Flag PP4C = molecular target: T1, Flag PP4C (UniProt P60510); experiment: affinity purification with mass spectrometry
T1 sequence: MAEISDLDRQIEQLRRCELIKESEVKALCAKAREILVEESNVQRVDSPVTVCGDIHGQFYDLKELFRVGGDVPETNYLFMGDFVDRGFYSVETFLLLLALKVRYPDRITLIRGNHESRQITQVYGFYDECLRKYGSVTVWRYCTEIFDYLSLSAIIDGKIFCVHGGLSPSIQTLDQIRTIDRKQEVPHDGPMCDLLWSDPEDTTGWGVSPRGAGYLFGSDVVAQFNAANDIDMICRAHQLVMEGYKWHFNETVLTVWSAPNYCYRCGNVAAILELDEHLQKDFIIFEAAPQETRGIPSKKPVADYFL

binding [1]: binds | binding (Flag PP4C): binds
Substance: PP4R3B (SMEK2) (from UniProt Q5MIZ7 1-849)

No constants are given. Whether binding was seen depends on the method and setting. Binding seen in cells or lysates may run through a third protein. Here binding means that the protein was enriched with, or labelled near, the bait; the list need not be complete. For some assays here: Sequences can lack the tags named with a protein.
